Results as given in patent US4053603A, “Benzylisoquinoline derivatives, and use as anti-arrhythmic drugs” (Astra Pharmaceutical Products, Inc., priority 1976, dated 1977).

Tests used:
[1] = test system: chloroform-induced ventricular fibrillation; assay: protection against chloroform-induced ventricular fibrillation in mice; type: in vivo, mouse (female Swiss albino, Ham/ICR); conditions: ED50^-1 in mmol/kg, standardized to compound 1 = 1
Protocol: (§1) Ventricular fibrillation was produced in female Swiss albino mice (Ham/ICR weighing 18-25g.) essentially according to the method described by Lawson in J. Pharm, Exp. Therap. 160, 22 (1968).
The mice were placed individually into a 2,000 ml. beaker with cotton and 50 ml. of chloroform. Immediately after cessation of respiration the mouse was removed from the beaker, the thorax opened and the heart examined for the presence or absence of ventricular fibrillation. Each heart was stimulated by touching with forceps, and the nature of the cardiac rhythm was noted and confirmed by electrocardiographic recordings. The heart was considered to be fibrillating if fine tremulous movements were present on the surface of the ventricle and persisted for at least five seconds after the mechanical stimulus. […]
For initial evaluation of antiarrhythmic activity and toxicity of test compounds, a dose of 100 mg/kg (calculated for the base form, 1% solution in 0.9% saline, adjusted to pH 6-7) was administered subcutaneously to a group of 10 non-fasted, randomly selected mice. […]
The data obtained from the three point assay was computer-analyzed using Berkson's minimum logit chi square analysis. […] Relative potency figures were calculated (ED50^-1 in mmol/kg) and standardized to give a potency of 1 for compound 1.

[2] = test system: mice; assay: central nervous system toxicity observation in mice (ataxia, convulsions, loss of righting reflex, death); type: in vivo, mouse (female Swiss albino, Ham/ICR)
Protocol: as §1
For initial evaluation of antiarrhythmic activity and toxicity of test compounds, a dose of 100 mg/kg (calculated for the base form, 1% solution in 0.9% saline, adjusted to pH 6-7) was administered subcutaneously to a group of 10 non-fasted, randomly selected mice. […] After 20 minutes they were exposed to chloroform vapors and tested for protection against fibrillation.

[3] = 100 mg/kg s.c., 10 mice, 20 min observation

In the case of `CCN(CC)CC(=O)Nc1c(C)cccc1C` [Lidocaine, 2-diethylamino-2',6'-acetoxylidide, reference compound], the “relative Potency (molar basis)” value [1] was 2, the “Toxicity: Ataxia (number of mice)” value [2, 3] was 10 and the “Toxicity: Con. (Convulsions) (number of mice)” value [2, 3] was 10. The “Toxicity: LRR (Loss of righting reflex) (number of mice)” value [2, 3] was 10 and the “toxicity (in words)” value ([2]; mice) was “high toxicity”.
